PubChem BioAssay AID504537 (National Center for Advancing Translational Sciences (NCATS), 2011)
The inconclusive results got no clear call from the source; some entries with a clear call stand among them for comparison. Where the call is inconclusive, the potency comes from a doubtful curve fit. Active and inactive are the calls of the source. How the calls were made is not given here.

By UniProt entry, the sequences of proteins in these tests, tags left out.
UniProt Q03164, whole entry, looked up: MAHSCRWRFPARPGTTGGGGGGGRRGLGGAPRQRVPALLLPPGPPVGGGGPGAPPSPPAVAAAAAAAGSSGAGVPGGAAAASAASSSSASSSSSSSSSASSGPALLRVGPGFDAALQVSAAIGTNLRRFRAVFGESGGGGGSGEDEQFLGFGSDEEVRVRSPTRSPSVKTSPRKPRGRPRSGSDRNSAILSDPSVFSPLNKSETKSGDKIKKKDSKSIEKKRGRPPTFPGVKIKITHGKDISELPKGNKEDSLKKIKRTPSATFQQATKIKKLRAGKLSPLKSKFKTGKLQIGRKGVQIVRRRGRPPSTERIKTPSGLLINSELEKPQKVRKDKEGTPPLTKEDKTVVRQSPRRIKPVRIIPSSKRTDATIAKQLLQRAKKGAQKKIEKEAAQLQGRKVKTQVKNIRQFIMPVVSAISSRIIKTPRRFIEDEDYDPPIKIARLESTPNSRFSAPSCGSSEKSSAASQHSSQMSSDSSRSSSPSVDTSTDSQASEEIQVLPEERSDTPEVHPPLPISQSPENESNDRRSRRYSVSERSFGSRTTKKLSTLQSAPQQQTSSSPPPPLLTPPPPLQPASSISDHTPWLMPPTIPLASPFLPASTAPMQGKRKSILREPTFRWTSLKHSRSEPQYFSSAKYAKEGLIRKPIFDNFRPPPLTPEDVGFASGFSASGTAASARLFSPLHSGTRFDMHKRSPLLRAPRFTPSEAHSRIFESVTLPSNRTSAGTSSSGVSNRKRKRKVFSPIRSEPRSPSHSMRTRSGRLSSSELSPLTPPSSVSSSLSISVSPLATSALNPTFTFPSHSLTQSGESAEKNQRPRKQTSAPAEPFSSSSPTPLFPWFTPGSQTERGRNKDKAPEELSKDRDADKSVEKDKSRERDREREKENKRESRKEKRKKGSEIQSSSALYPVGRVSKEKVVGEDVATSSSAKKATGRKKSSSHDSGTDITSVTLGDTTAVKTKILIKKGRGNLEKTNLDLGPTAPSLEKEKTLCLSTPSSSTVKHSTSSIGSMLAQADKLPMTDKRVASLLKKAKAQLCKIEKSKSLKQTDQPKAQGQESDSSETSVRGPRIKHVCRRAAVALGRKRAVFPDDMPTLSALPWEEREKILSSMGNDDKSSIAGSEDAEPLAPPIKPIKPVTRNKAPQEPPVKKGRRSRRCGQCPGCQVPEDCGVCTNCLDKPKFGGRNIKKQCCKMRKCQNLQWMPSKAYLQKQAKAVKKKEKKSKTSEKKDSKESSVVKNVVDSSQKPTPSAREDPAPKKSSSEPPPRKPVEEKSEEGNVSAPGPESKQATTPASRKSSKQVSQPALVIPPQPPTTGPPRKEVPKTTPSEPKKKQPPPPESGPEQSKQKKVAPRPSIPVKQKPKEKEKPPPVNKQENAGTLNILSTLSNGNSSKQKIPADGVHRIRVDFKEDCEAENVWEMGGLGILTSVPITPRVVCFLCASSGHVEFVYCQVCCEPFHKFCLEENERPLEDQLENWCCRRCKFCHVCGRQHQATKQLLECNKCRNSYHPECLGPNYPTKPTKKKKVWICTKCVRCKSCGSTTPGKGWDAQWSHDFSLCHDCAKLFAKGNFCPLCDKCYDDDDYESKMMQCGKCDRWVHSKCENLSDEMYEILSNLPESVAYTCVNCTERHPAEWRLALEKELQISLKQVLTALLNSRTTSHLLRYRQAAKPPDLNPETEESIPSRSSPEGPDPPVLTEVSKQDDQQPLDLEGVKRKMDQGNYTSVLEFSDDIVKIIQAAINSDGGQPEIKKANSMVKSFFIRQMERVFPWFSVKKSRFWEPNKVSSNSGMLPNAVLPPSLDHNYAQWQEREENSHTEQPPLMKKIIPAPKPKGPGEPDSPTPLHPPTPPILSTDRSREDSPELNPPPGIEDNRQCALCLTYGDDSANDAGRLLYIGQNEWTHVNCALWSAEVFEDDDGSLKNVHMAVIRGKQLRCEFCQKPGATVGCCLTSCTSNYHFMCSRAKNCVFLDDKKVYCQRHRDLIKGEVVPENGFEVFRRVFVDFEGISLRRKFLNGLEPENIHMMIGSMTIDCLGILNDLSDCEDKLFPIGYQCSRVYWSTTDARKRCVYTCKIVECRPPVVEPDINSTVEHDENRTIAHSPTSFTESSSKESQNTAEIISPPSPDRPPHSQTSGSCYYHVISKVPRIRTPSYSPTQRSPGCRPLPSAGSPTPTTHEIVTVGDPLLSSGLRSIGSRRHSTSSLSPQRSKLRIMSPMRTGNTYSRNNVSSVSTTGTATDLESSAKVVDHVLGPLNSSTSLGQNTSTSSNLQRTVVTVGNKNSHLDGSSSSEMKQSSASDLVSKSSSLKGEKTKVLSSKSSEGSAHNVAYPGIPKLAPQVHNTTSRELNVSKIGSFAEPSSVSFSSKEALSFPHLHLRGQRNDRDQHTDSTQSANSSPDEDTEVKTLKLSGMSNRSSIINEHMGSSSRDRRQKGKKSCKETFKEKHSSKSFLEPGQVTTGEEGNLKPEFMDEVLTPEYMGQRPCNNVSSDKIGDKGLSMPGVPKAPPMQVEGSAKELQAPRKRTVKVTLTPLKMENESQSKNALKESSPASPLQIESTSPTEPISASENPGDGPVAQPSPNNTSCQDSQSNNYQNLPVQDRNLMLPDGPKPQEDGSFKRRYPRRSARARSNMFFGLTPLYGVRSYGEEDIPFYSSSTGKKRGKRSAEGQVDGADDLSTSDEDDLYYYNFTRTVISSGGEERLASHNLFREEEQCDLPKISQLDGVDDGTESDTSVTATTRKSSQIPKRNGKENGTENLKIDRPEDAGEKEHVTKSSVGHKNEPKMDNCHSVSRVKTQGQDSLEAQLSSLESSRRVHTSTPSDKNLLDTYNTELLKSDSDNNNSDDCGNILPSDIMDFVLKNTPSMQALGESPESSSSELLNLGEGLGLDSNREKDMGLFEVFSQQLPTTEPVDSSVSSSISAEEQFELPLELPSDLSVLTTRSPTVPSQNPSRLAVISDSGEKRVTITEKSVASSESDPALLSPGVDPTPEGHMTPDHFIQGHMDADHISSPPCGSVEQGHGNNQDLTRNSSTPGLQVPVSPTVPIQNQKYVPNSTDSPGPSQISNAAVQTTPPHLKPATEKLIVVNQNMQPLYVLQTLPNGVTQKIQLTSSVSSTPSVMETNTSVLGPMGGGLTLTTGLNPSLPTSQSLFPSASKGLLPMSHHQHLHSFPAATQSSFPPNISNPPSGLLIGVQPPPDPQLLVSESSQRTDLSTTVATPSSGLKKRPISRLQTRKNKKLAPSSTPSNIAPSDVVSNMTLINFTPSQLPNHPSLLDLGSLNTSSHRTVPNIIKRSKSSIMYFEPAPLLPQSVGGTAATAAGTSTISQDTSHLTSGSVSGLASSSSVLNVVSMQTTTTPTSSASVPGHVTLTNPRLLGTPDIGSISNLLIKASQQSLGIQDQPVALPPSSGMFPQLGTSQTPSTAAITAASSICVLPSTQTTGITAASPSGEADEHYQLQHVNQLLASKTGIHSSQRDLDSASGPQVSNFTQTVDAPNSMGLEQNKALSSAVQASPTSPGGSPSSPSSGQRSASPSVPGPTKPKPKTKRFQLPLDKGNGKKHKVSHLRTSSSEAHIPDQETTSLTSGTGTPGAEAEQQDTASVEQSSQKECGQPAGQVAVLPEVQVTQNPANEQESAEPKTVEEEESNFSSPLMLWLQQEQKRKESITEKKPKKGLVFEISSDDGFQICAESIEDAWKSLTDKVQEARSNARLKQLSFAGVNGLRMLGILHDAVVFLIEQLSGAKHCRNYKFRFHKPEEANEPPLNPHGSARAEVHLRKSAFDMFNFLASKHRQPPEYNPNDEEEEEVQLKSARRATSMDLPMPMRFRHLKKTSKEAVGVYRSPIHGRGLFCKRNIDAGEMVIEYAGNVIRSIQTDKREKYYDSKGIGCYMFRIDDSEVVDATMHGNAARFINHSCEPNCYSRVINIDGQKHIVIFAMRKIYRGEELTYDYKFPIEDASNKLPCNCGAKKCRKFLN

Biological target: Histone-lysine N-methyltransferase 2A (Homo sapiens) (UniProt Q03164)
Assay: Inhibitor SAR for Compounds Targeting the Menin-MLL Interaction in MLL Related Leukemias: Competition With Fluorescein Labeled MLL-derived Peptide
Conditions: Menin-MLL fluorescein peptide fluorescence polarization competition
Excerpt: qHTS Assay for Inhibitors Targeting the Menin-MLL Interaction in MLL Related Leukemias NIH Chemical Genomics Center [NCGC] NIH Molecular Libraries Probe Centers Network [MLPCN] MLPCN Grant: MH084875-01A1 Assay Submitter (PI): Jolanta Grembecka, Tomasz Cierpicki, University of Virginia Translocations of the MLL (Mixed Lineage Leukemia) gene are frequently found in human leukemias affecting both children and adults. Fusion of MLL to one of more than 60 genes results in generation of oncogenic proteins upregulating Hox genes, which are vital to blood cell development. Patients harboring fusion of the MLL gene suffer from aggressive leukemias and respond poorly to available therapies. All of the oncogenic fusion proteins have a preserved N-terminal fragment of MLL that has been identified to interact with menin. It has been recently discovered that association with menin is critical to the leukemogenic activity of the MLL fusion oncoproteins. Selective targeting of the menin-MLL interaction could provide an attractive therapeutic approach to develop novel drugs for MLL-related leukemias. Small molecules blocking the menin-MLL interaction should reverse the oncogenic potential of MLL fusion proteins. We have developed and optimized a fluorescence polarization-based assay for the identification of Menin-MLL inhibitors. The assay was run employing two different MLL-derived peptides. The present assay uses a 12 amino acid peptide labeled with fluorescein at its N-terminus. This peptide consists of the menin high affinity binding motif from MLL and is potently bound by menin. Another peptide with a mutated sequence, labeled with Texas Red, was used in parallel as a less stringent screen for inhibitors. The present assay was run to characterize initial structure activity relationships.
The Menin protein, the MLL-wild type (w.t.) derived peptide (N-terminal 12 amino acids), the MLL-derived peptide labeled with Texas Red and the MLL-w.t. peptide labeled with Fluorescein were kindly supplied by laboratory of Dr. Jolanta Grembecka, University of Virginia. All protein and peptide solutions were stored in single use aliquots at -80C. The Eu3+ Cyrptate-conjugated mouse monoclonal antibody anti-6 Histidine (Eu3+-AB) and the Streptavidin-XL665 conjugate (XL665) were purchased from Cisbio International (Bedford, MA). All antibody and XL665 conjugate solution stocks were stored in single use aliquots at -20C. The Buffer components for all assays were purchased from Sigma-Aldrich (St. Louis, MO) and Invitrogen (Carlsbad, CA). FP Assay Reagents: 1. FP reaction buffer: 50 mM Tris-HCl pH 7.5, 50 mM NaCl, 1mM DTT. Before use, 0.05% BSA is added. 2. Menin protein, MLL-w.t. labeled with fluorescein, MLL-mutant peptide labeled with texas red. Stored in singe use aliquots at -80C. 3. MLL-w.t. unlabeled peptide as positive control: 10 uM final in FP buffer. FP Assay Procedure: 1. Prepare Menin at 200 nM, MLL-w.t.-fluorescein at 25 nM, and MLL-mutant-texas red at 50 nM mixture in FP buffer. 2. Prepare Menin at 200 nM, MLL-w.t.-fluorescein at 25 nM, MLL-mutant-texas red at 50 nM, and 10 uM MLL-w.t. unlabeled mixture in FP buffer. 3. Prepare MLL-w.t.-fluorescein at 25 nM and MLL-mutant-texas red at 50 nM mixture in FP buffer. 3. Dispense 4 ul per well of reagent in step 1 in columns 2, 4 - 48 in a black 1536 well plate, dispense 4 ul per well of reagents from steps 2 and 3 in columns 1 and 3 respectively. Incubate plate at ambient for 15 minutes. 4. Transfer 23 nl per well of compound to plate and incubate at ambient for 1 hr. 5. Read fluorescence polarization for each label using the PerkinElmer Envision. Envision protocol for fluorescein: FITC FP Dual Enh Mirror, Excitation filter 480, Emission filter (1) P-pol 535, Emission filter (2) S-pol 535 Envision protocol for texas red: FP Dual Enh Mirror, Excitation filter 555, Emission filter (1) P-pol 632, Emission filter (2) S-pol 632

SMILES | Potency | outcome
OC(c1ccccc1)(c1ccccc1)C1CCN(CCCOc2ccccc2C(F)(F)F)CC1 | inconclusive: 470 µM | 
OC(c1ccccc1)(c1ccccc1)C1CCN(CCCOc2cccc(C(F)(F)F)c2)CC1 | inconclusive: 635 µM | 
O=C(Nc1ccnn1C1CCN(CC2CC=CCC2)CC1)c1ccco1 (stereo not given) | inconclusive: 1890 µM | 
Cc1ccc(OCCCN2CCC(C(O)(c3ccccc3)c3ccccc3)CC2)cc1 | inconclusive: 258 µM | 
N#Cc1ccc(OCCCN2CCC(C(O)(c3ccccc3)c3ccc(F)cc3)CC2)cc1 (stereo not given) | inconclusive: 77.5 µM | 
O=C(O)c1ccc(OCCCN2CCC(C(O)(c3ccccc3)c3ccccc3)CC2)cc1 |  | inactive; no saturation, 34% inh. at 1mm
COc1ccc(OCCCN2CCC(C(c3ccccc3)c3ccccc3)CC2)cc1 | inconclusive: 1400 µM | 
O=C(Nc1ccnn1C1CCN(CC2CC=CCC2)CC1)c1cccnc1 (stereo not given) | inconclusive: 565 µM | 
COC(=O)c1ccc(OCCCN2CCC(C(O)(c3ccccc3)c3ccccc3)CC2)cc1 | inconclusive: 86 µM | 
CC(C)(C(=O)O)c1ccc(C(O)CCCN2CCC(C(O)(c3ccccc3)c3ccccc3)CC2)cc1 (stereo not given) |  | inactive; no activity up to 2 mm
OC(c1ccccc1)(c1ccccc1)C1CCN(CCCOc2cccc(OC(F)(F)F)c2)CC1 | inconclusive: 546 µM | 
OC(c1ccccc1)(c1ccccc1)C1CCN(CCCOc2cc(F)cc(F)c2)CC1 | inconclusive: 563 µM | 
Cc1ccc(C(=O)Nc2ccnn2C2CCN(CC3CC=CCC3)CC2)cc1 (stereo not given) | inconclusive: 1100 µM | 
Cc1cc(C)cc(OCCCN2CCC(C(O)(c3ccccc3)c3ccccc3)CC2)c1 | inconclusive: 481 µM | 
Cc1cccc(C(=O)Nc2ccnn2C2CCN(CC3CC=CCC3)CC2)c1 (stereo not given) | inconclusive: 540 µM | 
OC(c1ccccc1)(c1ccccc1)C1CCN(CCCOc2ccc(-n3ccnn3)cc2)CC1 | active: 29 µM | 
O=C(Nc1ccnn1C1CCN(CC2CC=CCC2)CC1)c1ccccc1F (stereo not given) | inconclusive: 320 µM | 
COc1ccc(C(=O)Nc2ccnn2C2CCN(CC3CC=CCC3)CC2)cc1 (stereo not given) | inconclusive: 595 µM | 
FC(F)(F)Oc1ccc(OCCCN2CCC(C(c3ccccc3)c3ccccc3)CC2)cc1 |  | inactive; no saturation, 12%inh at 2mm
O=C(Nc1ccnn1C1CCN(CC2CC=CCC2)CC1)c1ccncc1 (stereo not given) | inconclusive: 668 µM | 

SMILES | Potency | outcome
FC(F)(F)Oc1ccc(OCCCN2CCC(=C(c3ccccc3)c3ccccc3)CC2)cc1 |  | inactive; no saturation, 12%inh at 2mm
N#Cc1ccc(OCCCN2CCC(C(O)(c3ccccc3)C(F)(F)F)CC2)cc1 (stereo not given) | active: 31 µM | 
OC(c1ccccc1)(c1ccccc1)C1CCN(CCCOc2ccc(OC(F)(F)F)cc2)CC1 | inconclusive: 98 µM | 
Cc1ccccc1C(=O)Nc1ccnn1C1CCN(CC2CC=CCC2)CC1 (stereo not given) | inconclusive: 265 µM | 
COc1ccccc1C(=O)Nc1ccnn1C1CCN(C2CCCCC2)CC1 |  | inconclusive
Cc1ccccc1OCCCN1CCC(C(O)(c2ccccc2)c2ccccc2)CC1 | inconclusive: 318 µM | 
N#Cc1ccc(OCCCN2CCC(=C(c3ccccc3)c3ccccc3)CC2)cc1F | inconclusive: 2000 µM | 
[N-]=[N+]=Nc1ccc(OCCCN2CCC(C(O)(c3ccccc3)c3ccccc3)CC2)cc1 | active: 58 µM | 
OC(c1ccccc1)(c1ccccc1)C1CCN(CCCOc2cccnc2)CC1 | inconclusive: 1120 µM | 
Cc1ccc(OCCCN2CCC(C(c3ccccc3)c3ccccc3)CC2)cc1 | inconclusive: 1800 µM | 
COc1ccccc1C(=O)Nc1ccnn1C1CCN(CCc2ccccc2)CC1 |  | inconclusive
COc1ccc(C(=O)Nc2ccnn2C2CCN(CC3CC=CCC3)CC2)cc1OC (stereo not given) | inconclusive: 2000 µM | 
OC(c1ccccc1)(c1ccccc1)C1CCN(CCCOc2ccc(Cl)cc2)CC1 | inconclusive: 96 µM | 
N#Cc1cccc(OCCCN2CCC(C(O)(c3ccccc3)c3ccccc3)CC2)c1 | inconclusive: 925 µM | 
O=C(Nc1ccnn1C1CCN(CC2CC=CCC2)CC1)c1ccccc1OC(F)(F)F (stereo not given) | inconclusive: 2000 µM | 
COc1ccc(OCCCN2CCC(C(O)(c3ccccc3)c3ccccc3)CC2)cc1 | inconclusive: 258 µM | 
O=C(Nc1ccnn1C1CCN(CC2CC=CCC2)CC1)c1cccs1 (stereo not given) | inconclusive: 561 µM | 
OC(c1ccccc1)(c1ccccc1)C1CCN(CCCOc2ccccn2)CC1 | inconclusive: 1500 µM | 
COC(=O)C(C)(C)c1ccc(C(O)CCCN2CCC(C(O)(c3ccccc3)c3ccccc3)CC2)cc1 (stereo not given) | inconclusive: 300 µM | 
OC(c1ccccc1)(c1ccccc1)C1CCN(CCCOc2ccccc2)CC1 | inconclusive: 375 µM | 

Ordered by length of the SMILES (high to low): part of the list above
SMILES | Potency | outcome
COc1ccc(C(=O)Nc2ccnn2C2CCN(CC3CC=CCC3)CC2)cc1OC (stereo not given) | inconclusive: 2000 µM | 
Cc1ccccc1OCCCN1CCC(C(O)(c2ccccc2)c2ccccc2)CC1 | inconclusive: 318 µM | 
OC(c1ccccc1)(c1ccccc1)C1CCN(CCCOc2ccccn2)CC1 | inconclusive: 1500 µM | 
